Out of some 400,000 compounds screened, about 13,000 (3.2%) were called active. Inconclusive results, whose numbers are uncertain, are shown with a selection of clear calls. Calls follow the shape of the dose curve; as a rule, active = well fitted cell-killing curve with a large enough effect; inconclusive = small, poorly fitted or top-dose-only effect, or effect the other way; inactive = flat fitted curve, though single readings scatter. Potencies of inconclusive entries are doubtful fits and often do not repeat.
test: qHTS assay for MDR1-selective chemotherapeutics: Primary screen using the drug-selected MDR subline cells KB-V1; conditions: KB-V1 MDR cells viability, CellTiter-Glo, 72 h; activity change, negative = cytotoxicity: at 46.1 µM (top of the series); also: nearly all actives have a fitted effect of over 60% in size
Outline: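 Following 72 h at 37 degrees C with compound, KB-V1 cell viability was read by CellTiter-Glo luminescence, medium being phenol-red-free DMEM plus 10% FBS; concentration-response parameters came from normalized, curve-fitted qHTS data.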
% is scaled to controls: 0 for no effect and ±100 for the full control effect; potency is read from the fitted curve at half-maximal effect.

Row | SMILES | Potency | activity change, negative = cytotoxicity
1 | COc1cc([C@@H]2c3cc4c(cc3[C@H](O)[C@H]3COC(=O)[C@@H]23)OCO4)cc(OC)c1OC | inconclusive: 1.64 µM [cytotoxic, full curve, poor fit] | 
2 | C=CCN1C(=O)NC(c2ccc(OC)cc2)(C(F)(F)F)S/C1=C(\C#N)c1nnc(N2CCOCC2)n1-c1ccccc1 (stereo unspecified) |  | inactive: 5.79%
3 | CCCOC(=O)c1c(NC(=O)c2cc3nc(-c4ccc(OC)cc4)cc(C(F)(F)F)n3n2)sc2c1CCCC2 | inconclusive: 0.731 µM [rising, full curve, poor fit] | 
4 | CNS(=O)(=O)c1ccc2c(c1)NC(=O)C1CCCN21 (stereo unspecified) | inconclusive: 18.4 µM [rising, partial curve] | 
5 | O=C(c1cc2nc(-c3ccco3)cc(C(F)(F)F)n2n1)N1CCCCCC1 | inconclusive: 23.1 µM [cytotoxic, single point] | 
6 | Cc1cccc(C)c1NC(=O)C(c1ccc(C(F)(F)F)cc1)n1c(=O)c(-c2ccco2)nc2ccccc21 (stereo unspecified) | inconclusive: 23.1 µM [cytotoxic, partial curve, poor fit] | 
7 | CC1CCCN(c2ccc3nc4ccccc4c(=O)n3n2)C1 (stereo unspecified) | active: 7.31 µM | 
8 | Cc1ccc(C)c(NC(=O)Cn2c(-c3nonc3N)nc3ccccc32)c1 | inconclusive: 5.17 µM [rising, full curve] | 
9 | COc1cccc(NC(=O)CC2SC(=Nc3ccccc3)NC2=O)c1 (stereo unspecified) | active: 16.4 µM | 
10 | COc1ccc2oc(=O)c(C(=O)N3CCN(c4cc(Cl)ccc4Cl)CC3)cc2c1 | inconclusive: 8.2 µM [cytotoxic, partial curve] | 
11 | CCC(=O)N1CCc2cc(Br)cc(S(=O)(=O)NCCCN(CC)Cc3ccccc3)c21 | inconclusive: 6.51 µM [cytotoxic, partial curve] | 
12 | Nc1nc(SCC(=O)c2ccc(Cl)cc2)c2ncn(C3OC(CO)C(O)C3O)c2n1 (stereo unspecified) | inconclusive: 16.4 µM [cytotoxic, partial curve] | 
13 | Fc1cc(F)c(F)c(SCn2cc(Br)cn2)c1F | inconclusive: 29.1 µM [cytotoxic, single point] | 
14 | COc1ccc(-c2cc([C@H]3[C@@H]4C=CCC[C@@]4(C)C(=O)N3Cc3ccccc3)ccc2F)cc1OC | inconclusive: 29.1 µM [cytotoxic, single point] | 
15 | CCOc1ccc2c(O)csc2c1 | inconclusive: 20.6 µM [rising, single point] | 
16 | CC(C)N(Cc1c(O)ccc2c(=O)c(-c3ccc(Cl)cc3)coc12)C(C)C |  | inactive: 17.8%
17 | COc1ccccc1N1CCN(C(=O)c2cnn(C(C)(C)C)c2C2CCN(C(=O)OC(C)(C)C)CC2)CC1 |  | inactive: -15.5%
18 | Cc1ccc(S(=O)(=O)NCC(=O)OCC(=O)Nc2cccc(S(=O)(=O)N3CCOCC3)c2)cc1 | inconclusive: 23.1 µM [rising, single point] | 
19 | CCCn1c(N2CCN(Cc3ccc(Cl)cc3)CC2)nc2ccccc21 | inconclusive: 11.6 µM [cytotoxic, single point] | 
20 | CCOC(=O)CNC(=S)N(Cc1ccccc1F)C1CCCCC1 | inconclusive: 18.4 µM [cytotoxic, partial curve, poor fit] | 
21 | C/C(=N\NC(=O)c1ccccc1F)c1ccccn1 |  | inconclusive: -30.5%
22 | CCOC(=O)C(C)Sc1nc2c(cnn2-c2ccc(C)cc2)c(=O)[nH]1 (stereo unspecified) | inconclusive: 29.1 µM [cytotoxic, single point] | 

Row | SMILES | Potency | activity change, negative = cytotoxicity
23 | Cc1nnc(SCC2=C(C(=O)O)N3C(=O)C(NC(=O)c4cc(F)c(F)cc4Cl)C3SC2)s1 (stereo unspecified) | inconclusive: 1.46 µM [rising, partial curve, poor fit] | 
24 | CCCc1cc(=O)oc2c(CNc3ccc(OCC)cc3)c(O)ccc12 |  | inactive: -3.57%
25 | CCCCCN1CC(=O)N2[C@@H](Cc3c([nH]c4ccccc34)C2(C)C)C1=O | inconclusive: 3.26 µM [cytotoxic, partial curve, poor fit] | 
26 | COc1ccc2c(c1)CCc1c(C(=O)NCCN3CCOCC3)noc1-2 | active: 11.6 µM | 
27 | CN1CCN(c2nc(-c3ccc(Cl)cc3)nc3ccccc23)CC1 |  | inactive: -0.778%
28 | COC(=O)C(NC(=O)c1ccccc1Cl)(Nc1ncc(S(=O)(=O)c2ccc([N+](=O)[O-])cc2)s1)C(F)(F)F (stereo unspecified) | active: 13 µM | 
29 | COc1ccc(-c2csc(NC(C)c3nc4cc(Cl)c(Cl)cc4n3CCCO)n2)cc1 (stereo unspecified) | inconclusive: 16.4 µM [cytotoxic, single point] | 
30 | CC1CCC(NC(=O)c2ccc(CS(=O)(=O)Cc3ccccc3F)o2)CC1 (stereo unspecified) | inconclusive: 11.6 µM [cytotoxic, partial curve, poor fit] | 
31 | Cc1ccc(NC(=O)c2cc3cc(OC(F)(F)F)ccc3[nH]2)cc1 |  | inactive: -17.8%
32 | COc1ccc(OC)c2c1nc1n2CCS1 | inconclusive: 23.1 µM [cytotoxic, single point] | 
33 | O=[N+]([O-])c1ccc(Sc2nccn2Cc2ccccc2)cc1 | inconclusive: 29.1 µM [cytotoxic, single point] | 
34 | COCCn1c(SCC(N)=O)nc2c(c1=O)SC(C)C2 (stereo unspecified) | inconclusive: 18.4 µM [rising, single point] | 
35 | CN(C)/C(CN1CCN(C=O)CC1)=C1\N=C(c2ccccc2)OC1=O |  | inactive: 22.8%
36 | O=C1NC(Cc2ccc(O)cc2)c2nc3cc(Cl)ccc3c(=O)n2-c2ncccc21 (stereo unspecified) | inconclusive: 29.1 µM [rising, single point] | 
37 | COc1ccc(-c2noc(CCCC(=O)NC3CCCCC3)n2)cc1OC | inconclusive: 9.2 µM [cytotoxic, partial curve] | 
38 | COc1ccc(-n2nnnc2C(CCc2ccccc2)N2CCN(C/C=C/c3ccccc3)CC2)cc1 (stereo unspecified) | inconclusive: 29.1 µM [cytotoxic, single point] | 
39 | N#Cc1ccc2ccn(CC(=O)N3CCCc4ccccc43)c2c1 | inconclusive: 16.4 µM [cytotoxic, partial curve] | 
40 | COCCN1CCN(C(=O)C2CCC(=O)N(CCc3ccc(Cl)cc3)C2)CC1 (stereo unspecified) |  | inactive: 0.577%
41 | COc1ccccc1NCc1nnc2n1CCCCC2 |  | inactive: 0%
42 | COc1ccc(C(C)C)cc1S(=O)(=O)N1CCC(C(=O)N2CCN(C)CC2)CC1 | inconclusive: 29.1 µM [cytotoxic, single point] | 
43 | CC1CCCCN1C(=O)CSc1nnc(-c2ccccc2O)o1 (stereo unspecified) | inconclusive: 4.61 µM [cytotoxic, full curve] | 
44 | O=C1C(Cc2ccccc2)Nc2ncnc(N3CCOCC3)c2N1Cc1ccc(Cl)cc1 (stereo unspecified) | inconclusive: 1.84 µM [cytotoxic, full curve] | 

Looked up above:
For Potency, `COc1ccc(C(C)C)cc1S(=O)(=O)N1CCC(C(=O)N2CCN(C)CC2)CC1` has the entry inconclusive: 29.1 µM [cytotoxic, single point]
For Potency, `COc1ccc(-n2nnnc2C(CCc2ccccc2)N2CCN(C/C=C/c3ccccc3)CC2)cc1` (stereo unspecified) has the entry inconclusive: 29.1 µM [cytotoxic, single point]

Remaining list, next part

Row | SMILES | Potency | activity change, negative = cytotoxicity
45 | CCOc1ccc(OCCn2nnc3ccccc3c2=O)cc1 | inconclusive: 6.51 µM [cytotoxic, full curve] | 
46 | O=C(O)c1cccc2cc(-c3ccccc3)oc(=O)c12 |  | inactive: 0.754%
47 | Cc1cc(NS(=O)(=O)c2ccc(NC(=S)NC(=O)c3ccccc3)cc2)no1 |  | inactive: -28.8%
48 | C=CCOc1ccccc1/C=c1\sc2nc(=O)c(C)nn2c1=O | inconclusive: 23.1 µM [rising, partial curve, poor fit] | 
49 | COCCn1c(C)cc(/C=C2/SC(=O)N(CC(=O)N3CCCC3)C2=O)c1C | inconclusive: 20.6 µM [cytotoxic, single point] | 
50 | CSc1nc(-c2ccc(Cl)cc2)nn1C(=O)c1ccco1 |  | inactive: -3.8%
51 | Fc1ccc(C(c2nnc(-c3ccccc3)o2)N2CCN(c3ccccc3)CC2)c(Cl)c1 (stereo unspecified) | inconclusive: 6.51 µM [cytotoxic, partial curve] | 
52 | CC(C)C(=O)Nc1c(C(=O)N2CCN(c3ccccc3F)CC2)oc2ccccc12 | inconclusive: 0.146 µM [cytotoxic, full curve, poor fit] | 
53 | COc1cccc(-c2nc(OC(C)C)c3ccccc3n2)c1 | inconclusive: 20.6 µM [cytotoxic, partial curve, poor fit] | 
54 | CC(C)c1ccc(N2C(=O)CSC23C(=O)N(Cc2ccccc2F)c2ccccc23)cc1 (stereo unspecified) | inconclusive: 8.2 µM [cytotoxic, partial curve] | 
55 | COc1ccc(CC(=O)c2ccc(OC3OC(CO)C(O)C(O)C3O)cc2O)cc1 (stereo unspecified) | inconclusive: 16.4 µM [rising, single point] | 
56 | COc1cc(OC)cc(C(=O)Nc2ccc(N3CCOCC3)cc2N2CCOCC2)c1 |  | inconclusive: 30.4%
57 | O=C(CCc1nnc(CCCCc2ccccc2)o1)N1CCC(N2CCCC2)CC1 | inconclusive: 9.2 µM [rising, partial curve] | 
58 | CCCCCCC[n+]1ccc(/C=C/c2c[nH]c3ccccc23)cc1 |  | inactive: -35.5%
59 | O=C1c2ccccc2C(=O)C1(c1ccccc1)N1CCN(c2cccc(C(F)(F)F)c2)CC1 | inconclusive: 29.1 µM [cytotoxic, single point] | 
60 | Cn1c(CN2CCOCC2)nc2cc(NC(=O)c3ccc(F)cc3)ccc21 | active: 16.4 µM | 
61 | CC(C)Oc1ccc(CNS(=O)(=O)c2csc(C(N)=O)c2)cc1 | inconclusive: 29.1 µM [rising, single point] | 
62 | CCN(c1ccccc1C(=O)O)S(=O)(=O)c1ccc2[nH]c(=O)[nH]c2c1 | inconclusive: 32.6 µM [rising, single point] | 
63 | CC(C)(C)OC(=O)NCC1CCC(C(=O)NC[C@H](CC(=O)O)c2ccc(Cl)cc2)CC1 (stereo partly specified) |  | inactive: 19%
64 | Cc1ccc(-c2nc(C(=O)Nc3cccc(C#N)c3)c3n2CCCCC3)cc1 | inconclusive: 11.6 µM [cytotoxic, partial curve] | 
65 | CC(C)C1Cc2[nH][nH]c(=O)c2C(c2ccc(Cl)cc2)O1 (stereo unspecified) | inconclusive: 9.2 µM [rising, partial curve] | 
66 | NC(=O)c1ccsc1NC(=O)c1ccc(S(=O)(=O)N2CCCc3ccccc32)cc1 | inconclusive: 29.1 µM [cytotoxic, single point] | 

— PubChem BioAssay AID1347076 (National Center for Advancing Translational Sciences (NCATS), 2019)
